Source: the supplement of paper PMC4840960
± gives the standard deviation of the averaged measurements. The list shows a part of the results. Baselines shift from plate to plate; read single values as rough.

Test system: E18 rat cortical neuron-glia co-culture
Test: total nuclei (DAPI) / Olig2+ nuclei (ratio); higher = more depletion of OPC/OL lineage cells
Settings: 1 µM; treatment time: 8 days (DIV5-DIV13)

Structure (SMILES)	total nuclei
Cc1nc2ccccn2c(=O)c1CCN1CCC(C(=O)c2ccc(F)cc2)CC1 [Pirenperone]	2.84
CS(N)(=O)=O [Methanesulfonamide]	2.8
Cc1ccccc1C(OCCN(C)C)c1ccccc1 (stereo not given) [Orphenadrine]	3.65 ± 0.078
COc1ccc(OC)c(C(O)CNC(=O)CN)c1 (stereo not given) [Midodrine]	3.76
O=C(O)/C=C/c1ccc(Cn2ccnc2)cc1 [Ozagrel]	3.06
CCCCc1nc(Cl)c(CO)n1Cc1ccc(-c2ccccc2-c2nnn[nH]2)cc1 [Losartan]	3.72
COc1ccc2c(c1)c(CC(=O)O)c(C)n2C(=O)c1ccc(Cl)cc1 [Indomethacin]	3.61
Nc1nc2c(ncn2COC(CO)CO)c(=O)[nH]1 [Ganciclovir]	2.38
C[C@](N)(Cc1ccc(O)c(O)c1)C(=O)O [Methyldopa]	4.13
O=C(CCCN1CC=C(n2c(=O)[nH]c3ccccc32)CC1)c1ccc(F)cc1 [Droperidol]	2.62
CC(C)c1ccc2c(c1)c(SC(C)(C)C)c(CC(C)(C)C(=O)O)n2Cc1ccc(Cl)cc1	2.73
COc1cc(C)nc(-n2nc(C)cc2OC)n1 [Epirizole]	2.8
CC(C(=O)O)c1cccc(C(=O)c2ccccc2)c1 (stereo not given) [Ketoprofen]	4.1
C[C@H]1c2cccc(O)c2C(=O)C2=C(O)[C@]3(O)C(=O)C(C(N)=O)=C(O)[C@@H](N(C)C)[C@@H]3[C@@H](O)[C@@H]21 [Doxycycline]	2.29
CC[N+](C)(CC)CCOC(=O)C(O)(c1ccccc1)C1CCCCC1 (stereo not given) [Oxyphenonium]	2.67
COc1ccc(C2CNC(=O)C2)cc1OC1CCCC1 (stereo not given) [Rolipram]	4.54
C[C@@H]1C[C@H]2[C@@H]3CCC4=CC(=O)C=C[C@]4(C)[C@@]3(F)[C@@H](O)C[C@]2(C)[C@@]1(O)C(=O)CO [Dexamethasone]	2.65
COc1ccccc1N1CCN(CCCNc2cc(=O)n(C)c(=O)n2C)CC1 [Urapidil]	3.56
CCOC(=O)C1=C(C)NC(C)=C(C(=O)OC)C1c1cccc([N+](=O)[O-])c1 (stereo not given) [Nitrendipine]	2.71
Nc1nc(F)nc2c1ncn2[C@@H]1O[C@H](CO)[C@@H](O)[C@@H]1O [Fludarabine]	2.4
Cn1ccnc1S [Methimazole]	4.16
C[C@@](Cc1ccc(O)c(O)c1)(NN)C(=O)O [Carbidopa]	3.61
CS(=O)(=O)OCCCCOS(C)(=O)=O [Busulfan]	3.91
Cn1c(NCCN(CCO)CCCc2ccc([N+](=O)[O-])cc2)cc(=O)n(C)c1=O [Nifekalant]	4.33
CN[C@H]1CC[C@@H](c2ccc(Cl)c(Cl)c2)c2ccccc21 [Sertraline]	4.92 ± 2.1

A draw from above in order of heavy-atom count, falling.
Structure (SMILES)	total nuclei
Cc1ccccc1C(OCCN(C)C)c1ccccc1 (stereo not given) [Orphenadrine]	3.65 ± 0.078
Nc1nc2c(ncn2COC(CO)CO)c(=O)[nH]1 [Ganciclovir]	2.38
C[C@](N)(Cc1ccc(O)c(O)c1)C(=O)O [Methyldopa]	4.13
